Results are given in words; binding and its absence hold for the method and conditions named. In cells and extracts the contact can be indirect. A yes stands for co-enrichment or nearness to the bait. Other partners may have been found.
Molecular target: Flag-tagged version of LOXL2 (lysyl oxidase-like 2), from pcDNA3-hLOXL2-Flag (human) (UniProt Q9Y4K0)
Assay: affinity purification with mass spectrometry; extracts of HEK293T cells transfected with pcDNA3-hLOXL2-Flag (IPH buffer: 50 mM Tris-HCl pH 8.0, 150 mM NaCl, 5 mM EDTA, 0.5% NP-40); immunoprecipitated with anti-Flag M2 affinity gel 5 h at 4 °C; proteins identified by mass spectrometry

By UniProt entry, the sequences of proteins in these tests, tags left out. Residues count along the entry.
UniProt Q9Y4K0, residues 26-774: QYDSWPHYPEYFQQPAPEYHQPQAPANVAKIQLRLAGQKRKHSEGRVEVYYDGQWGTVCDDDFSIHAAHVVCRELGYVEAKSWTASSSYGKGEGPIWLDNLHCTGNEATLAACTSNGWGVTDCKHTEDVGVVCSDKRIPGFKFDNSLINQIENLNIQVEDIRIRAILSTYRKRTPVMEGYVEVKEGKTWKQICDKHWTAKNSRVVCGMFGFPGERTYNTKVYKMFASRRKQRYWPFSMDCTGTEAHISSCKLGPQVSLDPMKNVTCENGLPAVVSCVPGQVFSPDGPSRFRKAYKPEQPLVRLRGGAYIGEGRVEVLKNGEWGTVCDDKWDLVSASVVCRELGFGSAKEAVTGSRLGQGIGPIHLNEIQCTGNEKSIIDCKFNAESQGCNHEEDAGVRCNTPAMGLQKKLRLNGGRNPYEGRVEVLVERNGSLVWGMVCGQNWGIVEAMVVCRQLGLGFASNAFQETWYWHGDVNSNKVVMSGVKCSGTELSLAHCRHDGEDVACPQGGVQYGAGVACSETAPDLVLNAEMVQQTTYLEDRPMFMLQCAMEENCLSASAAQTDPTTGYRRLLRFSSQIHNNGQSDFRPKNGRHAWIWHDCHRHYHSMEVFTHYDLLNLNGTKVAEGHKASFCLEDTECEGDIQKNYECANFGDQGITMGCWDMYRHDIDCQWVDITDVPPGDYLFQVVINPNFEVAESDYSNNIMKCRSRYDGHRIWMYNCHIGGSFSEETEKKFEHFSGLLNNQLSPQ
UniProt P11021, residues 19-654: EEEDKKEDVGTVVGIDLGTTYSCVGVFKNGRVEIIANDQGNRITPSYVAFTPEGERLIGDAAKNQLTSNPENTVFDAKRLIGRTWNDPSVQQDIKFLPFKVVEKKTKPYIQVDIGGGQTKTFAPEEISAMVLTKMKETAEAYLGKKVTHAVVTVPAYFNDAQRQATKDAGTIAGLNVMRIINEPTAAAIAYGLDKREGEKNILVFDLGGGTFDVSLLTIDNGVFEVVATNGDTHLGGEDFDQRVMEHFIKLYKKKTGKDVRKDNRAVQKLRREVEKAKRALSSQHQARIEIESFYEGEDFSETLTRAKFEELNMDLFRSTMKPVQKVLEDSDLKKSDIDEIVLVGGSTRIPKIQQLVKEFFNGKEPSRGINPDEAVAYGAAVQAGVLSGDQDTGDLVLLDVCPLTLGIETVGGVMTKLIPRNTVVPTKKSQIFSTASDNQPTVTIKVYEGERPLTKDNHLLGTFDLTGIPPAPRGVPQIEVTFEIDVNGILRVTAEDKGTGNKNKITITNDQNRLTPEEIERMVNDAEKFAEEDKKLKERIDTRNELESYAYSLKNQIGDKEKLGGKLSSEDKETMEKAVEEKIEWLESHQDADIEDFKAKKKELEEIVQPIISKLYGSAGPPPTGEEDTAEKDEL

- binding: binds
Substance: HSPA5 (endogenous in HEK293T cells) (from UniProt P11021 19-654)

— publication PMC5362953
